Test results reported in patent US7632918B2, “Semi-synthetic glycopeptides with antibiotic activity” (Novartis Vaccines and Diagnostics, Inc., priority 2005, dated 2009).
Converted amounts (≈) assume the structure as drawn.

Assays:
Assay in all cases: MIC, broth microdilution in Meuller-Hinton broth (NCCLS)
3798 S. aureus (GISA) = type: cell-based, Staphylococus aureus; details: glycopeptides-intermediate clinical isolate
Method: (§1) Antibacterial activity in vitro was investigated by broth microdilution method in Meuller-Hinton broth as recommended by NCCLS. All strains tested were clinical isolates either sensitive or resistant to natural glycopeptides. Results are reported in the tables as MIC (minimal inhibitory concentration) in μg/ml.
(§2) The glycopeptides were tested against a variety of strains, indicated below, including Staphylococus epidermidis, Staphylococus haemolyticus, glycopeptides-intermediate Staphylococus aureus (GISA), glocopeptide-sensitive Enterococcus faecalis (GSE), and glocopeptide-resistant Enterococcus faecalis (GRE). Results are shown in the table as minimum inhibitory concentration (MIC) in units of μg/ml: […]

3797 S. aureus (GISA) = type: cell-based, Staphylococus aureus; details: glycopeptides-intermediate clinical isolate
Method: as §1, §2

533 S. epidermidis = type: cell-based, Staphylococus epidermidis; details: clinical isolate
Method: as §1, §2

559 E. faecalis (GSE) = type: cell-based, Enterococcus faecalis; details: glycopeptide-sensitive clinical isolate
Method: as §1, §2

560 E. faecalis (GRE) = type: cell-based, Enterococcus faecalis; details: glycopeptide-resistant clinical isolate
Method: as §1, §2

568 E. faecium (GSE) = type: cell-based; details: glycopeptide-sensitive clinical isolate
Method: as §1, §2

569 E. faecium (GRE) = type: cell-based; details: glycopeptide-resistant clinical isolate
Method: as §1, §2

602 S. haemolyticus = type: cell-based, Staphylococus haemolyticus; details: clinical isolate
Method: as §1, §2

CCCCCCCCOc1ccc(CNCC(=O)NC2(C)CC(OC3C(Oc4c5cc6cc4Oc4ccc(cc4Cl)C(O)C4NC(=O)C(NC(=O)C6NC(=O)C(CC(N)=O)NC(=O)C(NC(=O)C(CC(C)C)NC)C(O)c6ccc(c(Cl)c6)O5)c5ccc(O)c(c5)-c5c(O)cc(O)cc5C(C(=O)O)NC4=O)OC(CO)C(O)C3O)OC(C)C2O)cc1 (centres unmarked) [Compound 220, N′-p-C8H17OBnHNCH2CO vancomycin]
MIC 3798 S. aureus (GISA) (3798 S. aureus (GISA)): 2 µg/mL (≈ 1.16 µM)
MIC 3797 S. aureus (GISA) (3797 S. aureus (GISA)): 2 µg/mL (≈ 1.16 µM)
MIC 533 S. epidermidis (533 S. epidermidis): 0.5 µg/mL (≈ 0.29 µM)
MIC 559 E. faecalis (GSE) (559 E. faecalis (GSE)): 0.25 µg/mL (≈ 0.145 µM)
MIC 560 E. faecalis (GRE) (560 E. faecalis (GRE)): 4 µg/mL (≈ 2.32 µM)
MIC 568 E. faecium (GSE) (568 E. faecium (GSE)): 0.25 µg/mL (≈ 0.145 µM)
MIC 569 E. faecium (GRE) (569 E. faecium (GRE)): 2 µg/mL (≈ 1.16 µM)
MIC 602 S. haemolyticus (602 S. haemolyticus): 1 µg/mL (≈ 0.58 µM)
